According to publication PMC8570331, “8-Hydroxyquinoline-Amino Acid Hybrids and Their Half-Sandwich Rh and Ru Complexes: Synthesis, Anticancer Activities, Solution Chemistry and Interaction with Biomolecules” (International Journal of Molecular Sciences, 2021):

Tested on: ct-DNA–EB system
Test: Ethidium bromide–ct-DNA displacement, time-resolved fluorometry (TCSPC)
Assay type: binding, calf
Settings: cct-DNA 20 µM, cEB 5 µM, pH 7.40

SMILES	amplitude α1 (ccomplex/cct-DNA 1.00)	amplitude α2 (ccomplex/cct-DNA 1.00)	average lifetime τave (ccomplex/cct-DNA 1.00)	lifetime τ1 (ccomplex/cct-DNA 1.00)	lifetime τ2 (ccomplex/cct-DNA 1.00)	amplitude α1 (ccomplex/cct-DNA 2.00)	amplitude α2 (ccomplex/cct-DNA 2.00)	average lifetime τave (ccomplex/cct-DNA 2.00)	lifetime τ1 (ccomplex/cct-DNA 2.00)	lifetime τ2 (ccomplex/cct-DNA 2.00)	amplitude α1 (ccomplex/cct-DNA 4.01)	amplitude α2 (ccomplex/cct-DNA 4.01)	average lifetime τave (ccomplex/cct-DNA 4.01)	lifetime τ1 (ccomplex/cct-DNA 4.01)	lifetime τ2 (ccomplex/cct-DNA 4.01)	amplitude α1 (ccomplex/cct-DNA 6.01)	amplitude α2 (ccomplex/cct-DNA 6.01)	average lifetime τave (ccomplex/cct-DNA 6.01)	lifetime τ1 (ccomplex/cct-DNA 6.01)	lifetime τ2 (ccomplex/cct-DNA 6.01)	also measured
Cc1c(C)c(C)[c-](C)c1C.O=C(O)[C@H]1CCCC[NH+]1Cc1cc(Cl)c2cccnc2c1[O-].[Cl-].[Cl-].[Rh+3] [RhCp*–HQCl-D-hPro, [RhCp*(HQCl-D-hPro)Cl]Cl]	0.651	0.349	8.69 ns	1.67 ns	21.76 ns	0.656	0.344	8.51 ns	1.65 ns	21.58 ns	0.731	0.269	6.96 ns	1.64 ns	21.44 ns	0.935	0.065	2.83 ns	1.60 ns	20.42 ns	amplitude α1 (ccomplex/cct-DNA 10.02): 0.995; amplitude α2 (ccomplex/cct-DNA 10.02): 0.005; average lifetime τave (ccomplex/cct-DNA 10.02): 1.69 ns; lifetime τ1 (ccomplex/cct-DNA 10.02): 1.59 ns
Cc1ccc(C(C)C)cc1.O=C(O)[C@H]1CCCC[NH+]1Cc1cc(Cl)c2cccnc2c1[O-].[Cl-].[Cl-].[Ru+2] [RuCym–HQCl-D-hPro, [RuCym(HQCl-D-hPro)Cl]Cl]	0.645	0.355	8.80 ns	1.67 ns	21.78 ns	0.656	0.344	8.47 ns	1.63 ns	21.53 ns	0.656	0.344	8.42 ns	1.63 ns	21.37 ns	0.666	0.334	8.17 ns	1.66 ns	21.15 ns	amplitude α1 (ccomplex/cct-DNA 10.02): 0.916; amplitude α2 (ccomplex/cct-DNA 10.02): 0.084; average lifetime τave (ccomplex/cct-DNA 10.02): 3.13 ns; lifetime τ1 (ccomplex/cct-DNA 10.02): 1.59 ns; lifetime τ2 (ccomplex/cct-DNA 10.02): 19.99 ns; amplitude α1 (ccomplex/cct-DNA 15.03): 1.000; amplitude α2 (ccomplex/cct-DNA 15.03): 0.000; average lifetime τave (ccomplex/cct-DNA 15.03): 1.57 ns; lifetime τ1 (ccomplex/cct-DNA 15.03): 1.57 ns
